Experimental data as given in PMC6602300.
These are yes or no findings as the source states them, for the method shown. Binding seen in cells or lysates may run through a third protein. Some entries that bind do so weakly or less than the wild type. Where a sequence is shown, tags or fusion partners need not be part of it.

Amino acid sequences for entries named in this document (tags omitted).
UniProt O00425: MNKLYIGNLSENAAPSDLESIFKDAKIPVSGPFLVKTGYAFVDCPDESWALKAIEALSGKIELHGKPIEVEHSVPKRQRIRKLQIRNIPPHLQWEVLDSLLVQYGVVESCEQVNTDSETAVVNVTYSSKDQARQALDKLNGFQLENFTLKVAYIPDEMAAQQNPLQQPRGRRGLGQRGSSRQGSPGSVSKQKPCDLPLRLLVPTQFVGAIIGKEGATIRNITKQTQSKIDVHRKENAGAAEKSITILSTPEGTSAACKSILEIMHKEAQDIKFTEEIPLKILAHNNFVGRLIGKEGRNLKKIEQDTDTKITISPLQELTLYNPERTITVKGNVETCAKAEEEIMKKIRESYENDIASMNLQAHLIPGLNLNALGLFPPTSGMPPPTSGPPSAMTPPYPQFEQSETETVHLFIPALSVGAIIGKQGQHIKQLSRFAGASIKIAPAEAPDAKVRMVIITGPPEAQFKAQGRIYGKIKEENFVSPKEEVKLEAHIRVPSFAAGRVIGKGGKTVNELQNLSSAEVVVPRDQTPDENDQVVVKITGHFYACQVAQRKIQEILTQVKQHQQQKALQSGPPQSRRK

T1: Tagged OTUD4 expressed in HEK293T cells (human) (UniProt Q01804)
T1 sequence: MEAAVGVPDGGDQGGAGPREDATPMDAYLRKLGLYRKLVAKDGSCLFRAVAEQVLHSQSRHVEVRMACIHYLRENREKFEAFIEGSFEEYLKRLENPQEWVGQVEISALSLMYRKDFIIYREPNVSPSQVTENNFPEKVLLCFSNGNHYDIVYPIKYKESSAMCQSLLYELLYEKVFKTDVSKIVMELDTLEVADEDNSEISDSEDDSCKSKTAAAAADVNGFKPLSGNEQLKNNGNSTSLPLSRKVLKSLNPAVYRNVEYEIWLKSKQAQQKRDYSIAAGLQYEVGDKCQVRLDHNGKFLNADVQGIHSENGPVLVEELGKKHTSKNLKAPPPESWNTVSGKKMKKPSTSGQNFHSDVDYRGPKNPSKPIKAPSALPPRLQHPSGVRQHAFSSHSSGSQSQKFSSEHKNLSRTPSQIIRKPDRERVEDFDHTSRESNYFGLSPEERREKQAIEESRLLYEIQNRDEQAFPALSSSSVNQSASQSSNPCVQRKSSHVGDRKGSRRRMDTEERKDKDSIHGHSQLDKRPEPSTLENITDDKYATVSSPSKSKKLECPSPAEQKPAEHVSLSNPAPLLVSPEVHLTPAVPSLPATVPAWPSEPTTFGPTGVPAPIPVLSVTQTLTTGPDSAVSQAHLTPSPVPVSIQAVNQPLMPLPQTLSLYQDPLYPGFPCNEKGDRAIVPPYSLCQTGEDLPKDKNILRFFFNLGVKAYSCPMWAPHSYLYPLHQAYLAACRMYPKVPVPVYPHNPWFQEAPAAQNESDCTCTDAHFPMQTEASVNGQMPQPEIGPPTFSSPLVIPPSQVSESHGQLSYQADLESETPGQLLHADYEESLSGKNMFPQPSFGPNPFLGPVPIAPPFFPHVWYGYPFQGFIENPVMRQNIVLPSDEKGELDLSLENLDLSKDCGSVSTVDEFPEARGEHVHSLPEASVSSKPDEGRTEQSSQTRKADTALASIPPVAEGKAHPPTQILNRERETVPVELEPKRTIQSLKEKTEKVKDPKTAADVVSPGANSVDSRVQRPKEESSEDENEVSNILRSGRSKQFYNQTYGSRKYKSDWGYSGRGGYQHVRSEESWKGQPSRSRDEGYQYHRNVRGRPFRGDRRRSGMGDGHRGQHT


Target: T1, Tagged OTUD4 expressed in HEK293T cells (human)
Test: co-IP; HEK293T cells transfected as indicated; tagged OTUD4 precipitated (anti-HA agarose, anti-FLAG M2 or GFP-Trap beads as indicated); lysate incubated at 37°C for 15 min without RNase A (IGF2BP3 and TIAR also with 50 µg/ml RNase A, interaction enhanced); washes 10 mM Tris-HCl pH 7.5, 150 mM NaCl, 0.1% Triton X-100, 5% glycerol; western blot

Row | Molecule | binding
1 | Myc–IGF2BP3 (insulin-like growth factor 2 mRNA-binding protein 3) (from UniProt O00425 1-579) | binds
2 | Endogenous TIA1-related protein (TIAR) of HEK293T cells (protein, UniProt Q01085 1-375) MMEDDGQPRTLYVGNLSRDVTEVLILQLFSQIGPCKSCKMITEHTSNDPYCFVEFYEHRDAAAALAAMNGRKILGKEVKVNWATTPSSQKKDTSNHFHVFVGDLSPEITTEDIKSAFAPFGKISDARVVKDMATGKSKGYGFVSFYNKLDAENAIVHMGGQWLGGRQIRTNWATRKPPAPKSTQENNTKQLRFEDVVNQSSPKNCTVYCGGIASGLTDQLMRQTFSPFGQIMEIRVFPEKGYSFVRFSTHESAAHAIVSVNGTTIEGHVVKCYWGKESPDMTKNFQQVDYSQWGQWSQVYGNPQQYGQYMANGWQVPPYGVYGQPWNQQGFGVDQSPSAAWMGGFGAQPPQGQAPPPVIPPPNQAGYGMASYQTQ | binds
